# Some entries share one result that the patent states for a list of compounds.
# Test system: G-INT gastric cancer cell lines
# Assay: In vitro cell proliferation assay (MTS), G-INT cell lines
# Type: cell-based, human
# Settings: G-INT versus G-DIF cell lines
# Method: Cell proliferation assays were performed using a tetrazolium compound-based colorimetric method. Adherent or semi-adherent cell lines with doubling times less than 48 hours were used in this analysis. The cell lines for which cell proliferation assays were performed are: YCC19, YCC18, TMK1, YCC2, CLS145, YCC9, YCC6, NUGC3, HGC-27, Fu97, Ist1, YCC7, YCC16, Hs746T, MKN45, KatoIII, AGS, SNU719, AZ521, YCC1, MKN1, YCC11, IM95, MKN7, YCC3, YCC10, SCH and N87. Cell proliferation assays were performed using a tetrazolium compound-based colorimetric method (MTS kit, Promega, Madison, Wis., USA) according to the manufacturer's instructions and measured using an EnVision 2104 multilabel plate reader (Perkin Elmer, Finland) at 490 nm. Inhibition of cell growth by drugs was also visually confirmed under microscopy. Drugs used include cisplatin (Sigma, 479306-1G), oxaliplatin (Sigma, O9512), 5-Fluorouracil (Sigma, F6627-1G).
# Of the 37 cell lines, 28 cell lines (11 G-INT and 17 G-DIF) had growth characteristics suitable for in vitro drug sensitivity testing. 5-FU, oxaliplatin and cisplatin are drugs presently employed in the adjuvant and 1st line palliative treatment of GC. The 28 cell lines were treated with increasing concentrations of these drugs.
smiles,measurement,value
"O=c1[nH]cc(F)c(=O)[nH]1 [5-FU, 5-Fluorouracil]",Absolute magnitude of in vitro differential sensitivities,3-5 fold

# Source: patent US20130064901A1, “GENE EXPRESSION PROFILING FOR CLASSIFYING AND TREATING GASTRIC CANCER” (Agency for Science, Technology and Research, priority 2011, published 2013)
